We go through two substances from PMC5589848, “BMP-2 induced Dspp transcription is mediated by Dlx3/Osx signaling pathway in odontoblasts”.

The chains behind the UniProt entries cited, without tags or fusion partners.
UniProt Q8VI67: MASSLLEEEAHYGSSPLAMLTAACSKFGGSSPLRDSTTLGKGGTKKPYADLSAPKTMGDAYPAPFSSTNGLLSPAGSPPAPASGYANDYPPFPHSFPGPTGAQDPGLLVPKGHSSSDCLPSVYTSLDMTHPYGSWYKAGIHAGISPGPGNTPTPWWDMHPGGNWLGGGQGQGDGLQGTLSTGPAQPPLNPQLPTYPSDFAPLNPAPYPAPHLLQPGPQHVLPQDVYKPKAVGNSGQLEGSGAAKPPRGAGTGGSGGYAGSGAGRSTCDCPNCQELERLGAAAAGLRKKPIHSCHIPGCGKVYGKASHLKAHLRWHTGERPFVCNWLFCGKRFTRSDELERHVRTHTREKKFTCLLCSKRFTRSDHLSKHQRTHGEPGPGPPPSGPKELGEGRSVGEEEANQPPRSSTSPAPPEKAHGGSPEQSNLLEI
UniProt Q64205: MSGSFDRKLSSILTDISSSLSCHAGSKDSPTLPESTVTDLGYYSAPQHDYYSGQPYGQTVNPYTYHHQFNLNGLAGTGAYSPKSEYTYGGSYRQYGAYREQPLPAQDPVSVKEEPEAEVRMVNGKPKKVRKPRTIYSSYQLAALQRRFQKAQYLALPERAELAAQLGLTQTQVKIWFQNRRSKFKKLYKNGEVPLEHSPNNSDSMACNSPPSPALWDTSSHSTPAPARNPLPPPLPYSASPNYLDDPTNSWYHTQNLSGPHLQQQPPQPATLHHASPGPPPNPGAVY

No constants are given. Whether binding was seen depends on the method and setting. In cells and extracts the contact can be indirect. Some results given as binding are weak or reduced against the parent protein; the word gives no strength.

Experiment [1] concerns the target Osx (UniProt Q8VI67). Put plainly: co-IP; MD10-F2 cells co-transfected with pcDNA-Dlx3 and pcDNA-Osx-Flag for 72 h; RIPA lysate; IP with anti-Osx or anti-Dlx3 antibody (negative control IgG) and protein A/G plus agarose; washes with 10 mM Tris-HCl pH 8.0, 150 mM NaCl, 10% glycerol, 1% NP-40, 2 mM EDTA; Western blot. For orientation: In western blotting, separated proteins are transferred to a membrane and probed.

The target of experiment [2] is Dlx3 (UniProt Q64205). Described as above.

Turning to Dlx3 (from UniProt Q64205 1-287), in experiment [1], the binding result is on record as “binds”.
On to Osx (from UniProt Q8VI67 1-428), for which the binding entry in experiment [2] is given as “binds”.
